Measurements from PMC8632433.
Results are given in words; binding and its absence hold for the method and conditions named. In cells and extracts the contact can be indirect. Some entries that bind do so weakly or less than the wild type.

Molecular target: T1, Ataxin-10 (endogenous, HUVEC) (human (endogenous in HUVEC)) (UniProt Q9UBB4)
T1 sequence: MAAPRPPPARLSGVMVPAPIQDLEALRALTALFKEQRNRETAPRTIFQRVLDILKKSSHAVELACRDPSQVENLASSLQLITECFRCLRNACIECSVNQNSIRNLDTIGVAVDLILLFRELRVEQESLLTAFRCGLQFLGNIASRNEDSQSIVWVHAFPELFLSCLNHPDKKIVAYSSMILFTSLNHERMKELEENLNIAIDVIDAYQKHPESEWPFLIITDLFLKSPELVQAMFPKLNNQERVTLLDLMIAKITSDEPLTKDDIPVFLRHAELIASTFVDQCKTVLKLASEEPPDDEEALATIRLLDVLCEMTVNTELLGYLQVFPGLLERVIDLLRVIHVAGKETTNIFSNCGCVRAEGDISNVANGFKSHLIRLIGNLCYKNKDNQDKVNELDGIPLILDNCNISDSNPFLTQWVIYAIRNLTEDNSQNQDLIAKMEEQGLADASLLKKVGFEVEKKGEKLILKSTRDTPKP
Assay: co-IP; HUVECs treated with 10 ng/mL TNF-α for 2 hours; lysates incubated with anti-Ataxin-10 antibody or normal IgG; endogenous proteins

B1: interferon regulatory factor-1 (endogenous, HUVEC) (protein, UniProt P10914 1-325)
chain: MPITRMRMRPWLEMQINSNQIPGLIWINKEEMIFQIPWKHAAKHGWDINKDACLFRSWAIHTGRYKAGEKEPDPKTWKANFRCAMNSLPDIEEVKDQSRNKGSSAVRVYRMLPPLTKNQRKERKSKSSRDAKSKAKRKSCGDSSPDTFSDGLSSSTLPDDHSSYTVPGYMQDLEVEQALTPALSPCAVSSTLPDWHIPVEVVPDSTSDLYNFQVSPMPSTSEATTDEDEEGKLPEDIMKLLEQSEWQPTNVDGKGYLLNEPGVQPTSVYGDFSCKEEPEIDSPGGDIGLSLQRVFTDLKNMDATWLDSLLTPVRLPSIQAIPCAP
  binding: binds
